The results in this text go back to paper PMC3698095.

By UniProt entry, the sequences of proteins in these tests, tags left out.
UniProt P10417: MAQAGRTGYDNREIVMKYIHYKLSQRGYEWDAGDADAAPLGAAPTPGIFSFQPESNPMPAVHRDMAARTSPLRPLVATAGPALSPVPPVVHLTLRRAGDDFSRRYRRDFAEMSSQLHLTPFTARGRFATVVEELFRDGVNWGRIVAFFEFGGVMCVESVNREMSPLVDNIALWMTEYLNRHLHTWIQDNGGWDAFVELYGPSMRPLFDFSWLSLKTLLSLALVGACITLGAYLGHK

These are yes or no findings as the source states them, for the method shown. In cells and extracts the contact can be indirect. Some entries that bind do so weakly or less than the wild type.

The target of experiment [1] is Bim (mouse (endogenous in mouse liver)) (UniProt O54918). As to the kind of experiment: co-IP; immunoprecipitation with Bim antibody (2 µg/ml, 4°C, 3 h) from 400 µg crude liver protein in RIPA lysis buffer, protein-A/G-Sepharose, four RIPA washes; blots for Bcl2, Bcl-xL, Bax; HS-Csn8KO and CTL mouse livers.
Experiment [2] deals with Bcl2 (mouse (endogenous in mouse liver)) (UniProt P10417). The experiment in a line: co-IP; immunoprecipitation with Bcl2 antibody (2 µg/ml, 4°C, 3 h) from 400 µg crude liver protein in RIPA lysis buffer, protein-A/G-Sepharose, four RIPA washes; blots for Bcl2, Bim, Bax; HS-Csn8KO and CTL mouse livers.
In experiment [3] the target is T1, Bim (mouse (endogenous in mouse liver)), O54918.
T1 chain: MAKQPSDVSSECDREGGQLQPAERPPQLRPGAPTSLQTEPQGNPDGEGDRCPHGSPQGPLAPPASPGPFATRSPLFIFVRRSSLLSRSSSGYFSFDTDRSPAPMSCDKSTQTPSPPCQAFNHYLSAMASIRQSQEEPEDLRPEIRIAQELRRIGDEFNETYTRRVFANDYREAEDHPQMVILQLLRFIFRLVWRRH
As to the kind of experiment: co-IP; immunoprecipitation with Bim antibody (2 µg/ml, 4°C, 3 h) from 400 µg crude liver protein in RIPA lysis buffer, protein-A/G-Sepharose, four RIPA washes; blots for Bcl2, Bcl-xL, Bax; HS-Csn8KO and CTL mouse livers. The following applies: remark: other sources report otherwise.

For the molecule Bcl2 (from UniProt P10417 1-236), the binding result in experiment [1] is listed as “binds”.
For “extra-long form of Bim (Bim-EL) (from UniProt O54918-1 1-196)”, the binding result in experiment [2] is listed as “binds”.

B1: Bcl-xL, Q64373-1 1-233 (protein)
chain: MSQSNRELVVDFLSYKLSQKGYSWSQFSDVEENRTEAPEETEAERETPSAINGNPSWHLADSPAVNGATGHSSSLDAREVIPMAAVKQALREAGDEFELRYRRAFSDLTSQLHITPGTAYQSFEQVVNELFRDGVNWGRIVAFFSFGGALCVESVDKEMQVLVSRIASWMATYLNDHLEPWIQENGGWDTFVDLYGNNAAAESRKGQERFNRWFLTGMTVAGVVLLGSLFSRK
Take B1: in experiment [3], the binding entry was “no binding”.
